For two substances, binding results are on record in publication PMC4496396.

By UniProt entry, the sequences of proteins in these tests, tags left out. Where a name states a change or a piece, a line headed by the entry shows the natural chain unless it says otherwise. Residues count along the entry.
UniProt P35968, residues 20-1356: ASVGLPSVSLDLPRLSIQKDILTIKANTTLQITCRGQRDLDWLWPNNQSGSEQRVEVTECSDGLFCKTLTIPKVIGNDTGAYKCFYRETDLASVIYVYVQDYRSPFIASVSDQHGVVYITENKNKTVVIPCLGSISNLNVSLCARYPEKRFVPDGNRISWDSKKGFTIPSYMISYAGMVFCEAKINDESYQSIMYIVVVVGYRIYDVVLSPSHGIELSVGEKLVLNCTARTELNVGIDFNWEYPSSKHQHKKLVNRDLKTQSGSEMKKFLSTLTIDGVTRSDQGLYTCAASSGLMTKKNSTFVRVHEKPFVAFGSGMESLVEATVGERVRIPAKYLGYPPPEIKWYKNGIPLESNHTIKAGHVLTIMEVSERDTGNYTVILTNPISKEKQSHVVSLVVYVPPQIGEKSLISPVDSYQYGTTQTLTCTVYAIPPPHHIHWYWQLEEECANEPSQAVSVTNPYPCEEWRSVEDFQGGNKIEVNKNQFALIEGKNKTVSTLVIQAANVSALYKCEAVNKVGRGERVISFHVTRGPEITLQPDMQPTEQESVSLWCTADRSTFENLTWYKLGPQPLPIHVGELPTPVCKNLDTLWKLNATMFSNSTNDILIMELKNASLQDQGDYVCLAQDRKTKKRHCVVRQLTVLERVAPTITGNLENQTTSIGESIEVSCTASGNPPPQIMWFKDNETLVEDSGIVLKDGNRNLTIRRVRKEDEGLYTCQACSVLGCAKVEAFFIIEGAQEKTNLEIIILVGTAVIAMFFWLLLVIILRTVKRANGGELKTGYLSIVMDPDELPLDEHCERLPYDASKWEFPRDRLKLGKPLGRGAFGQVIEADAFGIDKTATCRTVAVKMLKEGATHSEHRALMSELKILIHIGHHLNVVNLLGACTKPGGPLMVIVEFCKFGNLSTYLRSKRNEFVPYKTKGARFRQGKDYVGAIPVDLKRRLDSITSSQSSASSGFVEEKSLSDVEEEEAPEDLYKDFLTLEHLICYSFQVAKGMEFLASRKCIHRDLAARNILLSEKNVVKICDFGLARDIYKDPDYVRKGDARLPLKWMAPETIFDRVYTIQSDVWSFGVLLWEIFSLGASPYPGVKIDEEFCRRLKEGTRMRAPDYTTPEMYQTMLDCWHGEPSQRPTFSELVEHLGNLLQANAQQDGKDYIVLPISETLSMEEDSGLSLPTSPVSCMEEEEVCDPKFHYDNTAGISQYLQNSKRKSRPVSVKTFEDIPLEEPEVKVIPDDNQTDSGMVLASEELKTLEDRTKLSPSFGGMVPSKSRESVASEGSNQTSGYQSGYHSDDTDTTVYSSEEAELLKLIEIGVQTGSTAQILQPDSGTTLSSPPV
UniProt P15692: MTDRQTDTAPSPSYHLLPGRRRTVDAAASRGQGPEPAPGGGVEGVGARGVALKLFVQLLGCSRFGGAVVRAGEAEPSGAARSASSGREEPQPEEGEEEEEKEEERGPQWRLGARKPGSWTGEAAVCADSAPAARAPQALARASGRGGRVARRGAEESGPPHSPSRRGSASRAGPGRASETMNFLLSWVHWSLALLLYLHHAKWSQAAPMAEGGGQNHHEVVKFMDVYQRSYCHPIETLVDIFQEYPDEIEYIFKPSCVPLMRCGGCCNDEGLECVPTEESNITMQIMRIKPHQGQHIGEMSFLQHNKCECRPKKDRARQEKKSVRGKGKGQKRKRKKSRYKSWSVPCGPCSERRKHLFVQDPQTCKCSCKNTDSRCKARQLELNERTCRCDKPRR

No constants are given. Whether binding was seen depends on the method and setting. A result given as binding can be weak or reduced; the word gives no strength. For some assays here: In cells and extracts the contact can be indirect.

Assay [1] addresses recombinant VEGFR-2 (UniProt P35968). Nature of the assay: pull-down; cell-free; recombinant VEGFR-2 first incubated with protein G beads, then recombinant EMMPRIN (or VEGF) added; bound proteins analysed by Western blotting; both purified.
In assay [2] the target is pVEGFR-2 (human (endogenous in HMEC, M10, BLM and human tumor tissues)) (UniProt P35968). The assay is described as follows: proximity ligation; in situ PLA (Duolink) on fixed cultured cells (HMEC, M10, MDA-MB-231; BLM-EMMPRIN-miRNA cells transfected with EMMPRIN constructs), primary antibodies to EMMPRIN, VEGFR-2, VEGF or pVEGFR-2 (Tyr 1175); confocal microscopy; with or without VEGF 50 ng/ml 5 min, EMMPRIN siRNA or scrambled siRNA.

Assay [3] deals with VEGF (human (endogenous in HMEC, M10, MDA-MB-231, BLM)) (UniProt P15692). The description is as above.
The target in assay [4] is pVEGFR-2 (human (endogenous in HMEC, M10, BLM and human tumor tissues)) (UniProt P35968). Nature of the assay: proximity ligation; in situ PLA on cryosections of frozen tumor tissues fixed with 4% paraformaldehyde (human breast cancer and melanoma tissues; BLM-scrambled-miRNA and BLM-EMMPRIN-miRNA xenografts from nude mice).
Assay [5] deals with VEGF (human (endogenous in HMEC, M10, MDA-MB-231, BLM)) (UniProt P15692). Nature of the assay: co-IP; lysates of HMEC, M10 (and MDA-MB-231) cells in TBS with 0.5% Nonidet P-40; IP with anti-VEGFR-2 or anti-VEGF and Protein G-sepharose, blot with anti-EMMPRIN; also after EMMPRIN siRNA or scrambled siRNA.

Take “recombinant EMMPRIN (from UniProt P35613-2)”: in assay [1], the binding result was “binds”.
Regarding EMMPRIN/CD147 (from UniProt P35613-2), the binding result in assay [2], in assay [3], in assay [4] and in assay [5] was “binds” in each case.
